Key:
[1] = test system: T1, BRL; test: hemagglutination inhibition; type: cell-based, Bauhinia rufa; details: rabbit erythrocytes
T1 construct: native, purified from seed flour on agarose-lactose; Alexa Fluor 555 labelled for arrays
Text: hemagglutination inhibition on BRL

[2] = test system: T2, BBL; test: hemagglutination inhibition; type: cell-based, Bauhinia bauhinioides; details: rabbit erythrocytes
T2 construct: native, purified from seeds by a published protocol; 76 residues previously published (unaligned); Alexa Fluor 555 labelled for arrays
Text: hemagglutination inhibition on BBL

Row | Compound | BRL [1] [mM] | BBL [2] [mM]
1 | C[C@@H]1OC(O)[C@H](O)[C@H](O)[C@H]1O (stereo partly drawn) [L-rhamnose] | 25 | –
2 | OC[C@H]1O[C@H](OC[C@H]2OC(O)[C@H](O)[C@@H](O)[C@@H]2O)[C@H](O)[C@@H](O)[C@H]1O (stereo partly drawn) [melibiose] | 6.25 | –
3 | CC(=O)N[C@H]1C(O)O[C@H](CO)[C@H](O)[C@@H]1O (stereo partly drawn) [N-acetyl-D-galactosamine] | 0.78 | 1.56
4 | OC[C@H]1OC(O)[C@H](O)[C@@H](O)[C@H]1O (stereo partly drawn) [D-galactose] | 1.56 | 3.16
5 | CO[C@H]1O[C@H](CO)[C@H](O)[C@H](O)[C@H]1O [α-methyl-D-galactopyranoside] | – | 1.56
6 | OC[C@H]1O[C@@H](O[C@H]2[C@H](O)[C@@H](O)[C@@H](O)O[C@@H]2CO)[C@H](O)[C@@H](O)[C@H]1O [α-lactose] | 6.25 | 3.16

— PMC12019499, “Novel Lectins from Bauhinia with Differential N-Glycan Binding Profiles” (ACS Omega, 2025)
